Measured values reported in paper PMC8168955.
Residue numbers refer to the chain shown, from its start. These are yes or no findings as the source states them, for the method shown. Binding seen in cells or lysates may run through a third protein. Some entries that bind do so weakly or less than the wild type. Tags and fused reporters may be left off the sequences shown.

By UniProt entry, the sequences of proteins in these tests, tags left out.
UniProt Q86TI2: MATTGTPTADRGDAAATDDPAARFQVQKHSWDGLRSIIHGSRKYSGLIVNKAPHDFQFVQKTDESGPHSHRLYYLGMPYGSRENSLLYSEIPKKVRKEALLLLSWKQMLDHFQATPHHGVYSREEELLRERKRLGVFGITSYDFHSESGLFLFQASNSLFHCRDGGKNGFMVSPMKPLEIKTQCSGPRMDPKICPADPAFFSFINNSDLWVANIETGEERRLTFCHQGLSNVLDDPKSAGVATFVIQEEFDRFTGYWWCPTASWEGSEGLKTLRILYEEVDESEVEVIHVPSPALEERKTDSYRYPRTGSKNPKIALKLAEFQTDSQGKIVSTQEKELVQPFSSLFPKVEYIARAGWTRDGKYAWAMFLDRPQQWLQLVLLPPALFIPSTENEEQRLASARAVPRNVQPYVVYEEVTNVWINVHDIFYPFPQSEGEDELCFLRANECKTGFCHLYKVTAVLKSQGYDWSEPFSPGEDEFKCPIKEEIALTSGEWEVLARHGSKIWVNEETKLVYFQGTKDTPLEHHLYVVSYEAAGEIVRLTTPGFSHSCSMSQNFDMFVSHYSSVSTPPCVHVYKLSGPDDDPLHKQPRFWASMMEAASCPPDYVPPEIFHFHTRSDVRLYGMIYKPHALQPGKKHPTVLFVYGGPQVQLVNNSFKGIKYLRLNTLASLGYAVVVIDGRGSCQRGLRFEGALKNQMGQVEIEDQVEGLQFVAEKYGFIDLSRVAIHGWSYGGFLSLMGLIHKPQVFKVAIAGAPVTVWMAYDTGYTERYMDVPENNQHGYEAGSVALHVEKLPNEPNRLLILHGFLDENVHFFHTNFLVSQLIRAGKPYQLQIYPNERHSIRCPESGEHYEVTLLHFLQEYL

What was measured:
Assay in all cases: co-IP; anti-FLAG-M2-agarose precipitation of NLRP1-3xFLAG (WT or mutant) from HEK293T lysates in 1% NP40 lysis buffer with 150 mM NaCl, 4 hours or overnight at 4°C; DPP9 detected by immunoblot; in Fig 2B cells were treated with 2 μM Talabostat or dimethyl sulfoxide before harvest
[1] = biological target: T1, human NLRP1-3xFLAG A66V (human) (UniProt Q9C000)
T1 sequence: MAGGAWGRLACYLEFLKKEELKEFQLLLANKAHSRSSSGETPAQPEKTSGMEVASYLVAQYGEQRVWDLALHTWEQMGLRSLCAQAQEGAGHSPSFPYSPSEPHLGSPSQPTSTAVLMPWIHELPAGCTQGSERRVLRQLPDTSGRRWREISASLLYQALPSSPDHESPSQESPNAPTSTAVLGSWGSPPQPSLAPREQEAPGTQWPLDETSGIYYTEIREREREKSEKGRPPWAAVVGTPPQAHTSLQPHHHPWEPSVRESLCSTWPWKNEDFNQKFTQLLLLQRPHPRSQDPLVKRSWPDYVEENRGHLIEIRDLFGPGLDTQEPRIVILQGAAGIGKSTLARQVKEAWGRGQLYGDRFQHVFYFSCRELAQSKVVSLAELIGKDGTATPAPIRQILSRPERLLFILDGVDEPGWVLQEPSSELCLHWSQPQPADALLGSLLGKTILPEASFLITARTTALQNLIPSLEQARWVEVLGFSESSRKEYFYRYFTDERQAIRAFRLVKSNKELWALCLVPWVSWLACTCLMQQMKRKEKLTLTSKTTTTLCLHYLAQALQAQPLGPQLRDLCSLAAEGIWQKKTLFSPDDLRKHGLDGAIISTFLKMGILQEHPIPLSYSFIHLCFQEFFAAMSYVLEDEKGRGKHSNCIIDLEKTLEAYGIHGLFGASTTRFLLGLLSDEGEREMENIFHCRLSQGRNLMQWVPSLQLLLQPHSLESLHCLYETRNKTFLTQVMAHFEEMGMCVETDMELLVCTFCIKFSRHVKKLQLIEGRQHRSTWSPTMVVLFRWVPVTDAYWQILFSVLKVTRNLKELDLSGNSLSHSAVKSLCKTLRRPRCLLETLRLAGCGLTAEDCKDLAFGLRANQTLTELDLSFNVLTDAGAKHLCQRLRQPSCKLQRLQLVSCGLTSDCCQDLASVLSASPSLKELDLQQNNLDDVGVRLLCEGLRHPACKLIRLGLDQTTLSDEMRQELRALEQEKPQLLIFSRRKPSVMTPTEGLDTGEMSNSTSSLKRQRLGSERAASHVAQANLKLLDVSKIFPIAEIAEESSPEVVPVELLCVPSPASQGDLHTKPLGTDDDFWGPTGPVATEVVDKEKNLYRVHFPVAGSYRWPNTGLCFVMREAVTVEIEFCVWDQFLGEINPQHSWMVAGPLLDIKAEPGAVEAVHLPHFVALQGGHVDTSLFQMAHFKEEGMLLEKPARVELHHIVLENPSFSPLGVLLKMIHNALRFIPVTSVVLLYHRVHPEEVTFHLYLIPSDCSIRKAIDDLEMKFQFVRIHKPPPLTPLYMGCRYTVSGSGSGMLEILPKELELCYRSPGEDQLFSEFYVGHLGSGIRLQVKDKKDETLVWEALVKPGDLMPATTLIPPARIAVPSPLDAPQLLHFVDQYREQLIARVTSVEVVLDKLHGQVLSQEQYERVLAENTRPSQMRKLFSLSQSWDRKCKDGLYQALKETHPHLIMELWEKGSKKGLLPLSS

[2] = biological target: T2, human NLRP1-3xFLAG A66V/M1184V (human) (UniProt Q9C000)
T2 sequence: T1 sequence with M1184V

[3] = biological target: T3, human NLRP1-3xFLAG M1184V (human) (UniProt Q9C000)
T3 sequence: T1 sequence with V66A, M1184V

[4] = biological target: T4, human NLRP1-3xFLAG M1184V/P1214R (human) (UniProt Q9C000)
T4 sequence: T1 sequence with V66A, M1184V, P1214R

binding [1]: binds
binding [2]: binds
binding [3]: binds
binding [4]: binds
Substance: dipeptidyl peptidase 9 (from UniProt Q86TI2 1-863) (enzyme)
